The record followed here is the supplement of paper PMC7666118.

Amino acid sequences for entries named in this document (tags omitted). A change or cut given only in a name is not applied to a line headed by its entry.
UniProt P31146: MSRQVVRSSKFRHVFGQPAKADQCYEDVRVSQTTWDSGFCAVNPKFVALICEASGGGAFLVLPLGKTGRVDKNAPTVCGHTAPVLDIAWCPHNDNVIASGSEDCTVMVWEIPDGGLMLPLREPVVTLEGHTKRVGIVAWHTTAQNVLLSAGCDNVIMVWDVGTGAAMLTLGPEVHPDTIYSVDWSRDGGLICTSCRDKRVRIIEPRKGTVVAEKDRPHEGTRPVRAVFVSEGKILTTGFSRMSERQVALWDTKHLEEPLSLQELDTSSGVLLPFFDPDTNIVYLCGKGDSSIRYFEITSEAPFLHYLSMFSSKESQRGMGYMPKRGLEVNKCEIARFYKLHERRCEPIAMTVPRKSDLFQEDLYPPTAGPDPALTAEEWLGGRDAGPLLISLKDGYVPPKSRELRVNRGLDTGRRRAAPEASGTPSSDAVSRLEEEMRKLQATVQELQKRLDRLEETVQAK
UniProt P15954, whole entry: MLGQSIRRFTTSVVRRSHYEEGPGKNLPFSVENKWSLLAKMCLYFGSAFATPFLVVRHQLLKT
UniProt P49366: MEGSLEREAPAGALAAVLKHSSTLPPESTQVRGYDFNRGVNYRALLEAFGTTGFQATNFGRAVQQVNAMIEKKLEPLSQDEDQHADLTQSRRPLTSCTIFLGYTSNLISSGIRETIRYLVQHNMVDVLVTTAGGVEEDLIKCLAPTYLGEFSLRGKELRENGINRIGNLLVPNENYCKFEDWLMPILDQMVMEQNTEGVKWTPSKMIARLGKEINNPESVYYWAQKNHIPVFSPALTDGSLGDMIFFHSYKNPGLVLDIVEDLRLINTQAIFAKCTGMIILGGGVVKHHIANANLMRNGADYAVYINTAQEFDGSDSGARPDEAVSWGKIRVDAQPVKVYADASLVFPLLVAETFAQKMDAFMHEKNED
UniProt P01040: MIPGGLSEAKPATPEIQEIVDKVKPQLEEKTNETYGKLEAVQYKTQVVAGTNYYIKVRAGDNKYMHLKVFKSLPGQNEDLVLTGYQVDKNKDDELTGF
UniProt Q8IY37: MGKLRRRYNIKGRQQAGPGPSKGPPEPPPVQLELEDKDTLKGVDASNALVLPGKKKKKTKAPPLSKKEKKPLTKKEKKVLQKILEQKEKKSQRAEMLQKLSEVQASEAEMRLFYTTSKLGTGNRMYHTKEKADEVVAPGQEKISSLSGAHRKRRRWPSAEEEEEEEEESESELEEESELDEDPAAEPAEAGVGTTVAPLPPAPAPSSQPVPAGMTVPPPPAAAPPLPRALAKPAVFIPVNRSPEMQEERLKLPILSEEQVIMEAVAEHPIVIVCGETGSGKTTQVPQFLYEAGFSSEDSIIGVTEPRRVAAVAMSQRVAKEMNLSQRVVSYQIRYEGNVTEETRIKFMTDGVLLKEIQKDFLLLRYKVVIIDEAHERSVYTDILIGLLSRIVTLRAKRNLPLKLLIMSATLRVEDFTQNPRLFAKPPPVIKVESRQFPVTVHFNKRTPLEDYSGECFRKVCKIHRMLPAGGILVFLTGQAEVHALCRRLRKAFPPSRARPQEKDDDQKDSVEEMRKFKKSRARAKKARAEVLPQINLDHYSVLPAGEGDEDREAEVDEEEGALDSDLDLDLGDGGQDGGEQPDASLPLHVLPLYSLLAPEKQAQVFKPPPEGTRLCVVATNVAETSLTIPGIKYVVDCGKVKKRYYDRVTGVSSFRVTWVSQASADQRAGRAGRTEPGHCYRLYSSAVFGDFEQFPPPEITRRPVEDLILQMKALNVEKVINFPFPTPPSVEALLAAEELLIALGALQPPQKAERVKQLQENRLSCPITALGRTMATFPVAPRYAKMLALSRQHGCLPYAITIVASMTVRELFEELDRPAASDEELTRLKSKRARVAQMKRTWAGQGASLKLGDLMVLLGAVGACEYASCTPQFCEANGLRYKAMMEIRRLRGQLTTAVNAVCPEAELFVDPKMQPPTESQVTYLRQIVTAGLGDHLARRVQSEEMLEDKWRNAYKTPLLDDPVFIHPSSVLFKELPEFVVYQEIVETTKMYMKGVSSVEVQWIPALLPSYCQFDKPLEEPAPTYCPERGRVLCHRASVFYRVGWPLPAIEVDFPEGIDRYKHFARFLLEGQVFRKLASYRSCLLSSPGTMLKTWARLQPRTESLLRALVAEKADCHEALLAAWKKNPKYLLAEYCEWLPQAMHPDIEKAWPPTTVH
UniProt Q7L014: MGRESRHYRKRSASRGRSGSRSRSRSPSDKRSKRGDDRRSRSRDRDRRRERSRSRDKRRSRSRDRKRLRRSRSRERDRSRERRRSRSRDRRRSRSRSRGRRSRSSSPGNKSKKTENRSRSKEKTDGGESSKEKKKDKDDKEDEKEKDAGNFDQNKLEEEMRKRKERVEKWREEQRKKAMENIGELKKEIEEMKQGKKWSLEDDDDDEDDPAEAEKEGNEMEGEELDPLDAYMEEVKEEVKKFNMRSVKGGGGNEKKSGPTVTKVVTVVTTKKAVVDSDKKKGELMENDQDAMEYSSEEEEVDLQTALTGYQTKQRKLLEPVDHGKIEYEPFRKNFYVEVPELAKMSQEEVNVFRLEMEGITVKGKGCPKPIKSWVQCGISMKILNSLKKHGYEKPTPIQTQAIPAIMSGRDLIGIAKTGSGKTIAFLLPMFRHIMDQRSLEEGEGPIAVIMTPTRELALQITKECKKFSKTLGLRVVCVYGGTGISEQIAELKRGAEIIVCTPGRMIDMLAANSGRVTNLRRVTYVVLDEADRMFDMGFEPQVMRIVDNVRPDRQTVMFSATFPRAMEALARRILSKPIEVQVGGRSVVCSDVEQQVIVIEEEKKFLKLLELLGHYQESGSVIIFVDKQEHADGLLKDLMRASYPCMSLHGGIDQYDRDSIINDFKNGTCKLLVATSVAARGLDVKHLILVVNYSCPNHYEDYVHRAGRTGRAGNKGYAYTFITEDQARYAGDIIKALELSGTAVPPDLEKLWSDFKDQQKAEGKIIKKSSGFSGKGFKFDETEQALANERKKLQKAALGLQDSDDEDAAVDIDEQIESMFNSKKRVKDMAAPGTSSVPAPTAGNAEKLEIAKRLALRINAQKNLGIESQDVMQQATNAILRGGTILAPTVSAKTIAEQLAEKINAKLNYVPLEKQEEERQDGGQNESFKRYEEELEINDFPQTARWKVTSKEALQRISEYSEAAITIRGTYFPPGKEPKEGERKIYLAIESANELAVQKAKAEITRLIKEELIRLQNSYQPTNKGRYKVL
UniProt Q9BUQ8: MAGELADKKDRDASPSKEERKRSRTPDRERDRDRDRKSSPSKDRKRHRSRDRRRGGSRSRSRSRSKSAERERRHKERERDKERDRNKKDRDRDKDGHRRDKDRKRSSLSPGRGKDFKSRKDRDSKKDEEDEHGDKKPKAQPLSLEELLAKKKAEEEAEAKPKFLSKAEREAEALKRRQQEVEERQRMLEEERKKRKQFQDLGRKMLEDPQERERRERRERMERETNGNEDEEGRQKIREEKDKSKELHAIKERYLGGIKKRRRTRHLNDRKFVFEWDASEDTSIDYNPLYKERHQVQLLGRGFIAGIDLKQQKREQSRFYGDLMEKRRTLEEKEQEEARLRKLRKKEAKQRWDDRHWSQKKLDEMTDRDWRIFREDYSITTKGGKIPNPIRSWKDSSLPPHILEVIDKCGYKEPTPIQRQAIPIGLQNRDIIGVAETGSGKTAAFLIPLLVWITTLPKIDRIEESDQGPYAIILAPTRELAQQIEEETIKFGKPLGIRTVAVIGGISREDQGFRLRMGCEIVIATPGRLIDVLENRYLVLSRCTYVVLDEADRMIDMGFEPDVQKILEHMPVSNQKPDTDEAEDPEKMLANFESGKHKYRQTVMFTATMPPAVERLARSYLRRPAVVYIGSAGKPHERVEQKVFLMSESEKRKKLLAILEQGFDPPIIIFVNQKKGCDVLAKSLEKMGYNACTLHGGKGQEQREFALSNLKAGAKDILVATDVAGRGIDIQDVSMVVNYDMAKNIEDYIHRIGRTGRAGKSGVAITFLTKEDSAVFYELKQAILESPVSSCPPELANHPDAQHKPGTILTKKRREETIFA
UniProt Q96FN4: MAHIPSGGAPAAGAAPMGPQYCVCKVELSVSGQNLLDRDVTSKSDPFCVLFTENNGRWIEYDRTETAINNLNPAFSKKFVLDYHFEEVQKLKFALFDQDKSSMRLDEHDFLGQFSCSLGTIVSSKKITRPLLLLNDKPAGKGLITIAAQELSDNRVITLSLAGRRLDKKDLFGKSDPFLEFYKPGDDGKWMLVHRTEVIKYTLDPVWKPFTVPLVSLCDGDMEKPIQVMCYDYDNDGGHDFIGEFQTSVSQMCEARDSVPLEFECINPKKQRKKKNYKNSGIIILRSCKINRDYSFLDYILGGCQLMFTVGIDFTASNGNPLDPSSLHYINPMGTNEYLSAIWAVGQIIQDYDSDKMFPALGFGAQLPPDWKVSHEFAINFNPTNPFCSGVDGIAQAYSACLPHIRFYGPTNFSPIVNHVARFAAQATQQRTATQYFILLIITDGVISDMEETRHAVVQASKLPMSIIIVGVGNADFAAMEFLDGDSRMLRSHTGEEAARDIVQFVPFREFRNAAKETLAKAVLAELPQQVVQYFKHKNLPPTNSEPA
UniProt O14579: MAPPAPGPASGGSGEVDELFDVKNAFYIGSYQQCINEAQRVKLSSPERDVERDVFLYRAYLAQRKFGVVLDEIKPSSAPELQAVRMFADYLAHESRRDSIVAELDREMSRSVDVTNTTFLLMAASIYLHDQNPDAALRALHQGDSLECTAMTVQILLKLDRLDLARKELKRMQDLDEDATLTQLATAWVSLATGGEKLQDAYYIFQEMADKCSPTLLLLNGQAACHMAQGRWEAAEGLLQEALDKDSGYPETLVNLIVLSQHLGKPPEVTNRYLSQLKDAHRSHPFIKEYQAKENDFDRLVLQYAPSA
UniProt P21964: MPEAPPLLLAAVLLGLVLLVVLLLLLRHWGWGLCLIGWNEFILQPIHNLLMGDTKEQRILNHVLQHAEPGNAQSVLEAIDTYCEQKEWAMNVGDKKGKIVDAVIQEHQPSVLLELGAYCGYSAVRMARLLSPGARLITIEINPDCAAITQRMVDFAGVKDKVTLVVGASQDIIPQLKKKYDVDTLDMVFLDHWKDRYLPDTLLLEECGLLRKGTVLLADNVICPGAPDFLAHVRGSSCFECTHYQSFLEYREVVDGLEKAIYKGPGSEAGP
UniProt Q7Z4W1: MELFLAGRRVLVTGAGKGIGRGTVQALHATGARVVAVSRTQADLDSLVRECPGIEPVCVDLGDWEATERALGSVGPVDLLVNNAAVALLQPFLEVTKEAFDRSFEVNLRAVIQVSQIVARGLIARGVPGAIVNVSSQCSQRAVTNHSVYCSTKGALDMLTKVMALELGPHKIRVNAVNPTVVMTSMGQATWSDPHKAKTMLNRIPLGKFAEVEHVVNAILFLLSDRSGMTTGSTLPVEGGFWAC
UniProt A2RUS2: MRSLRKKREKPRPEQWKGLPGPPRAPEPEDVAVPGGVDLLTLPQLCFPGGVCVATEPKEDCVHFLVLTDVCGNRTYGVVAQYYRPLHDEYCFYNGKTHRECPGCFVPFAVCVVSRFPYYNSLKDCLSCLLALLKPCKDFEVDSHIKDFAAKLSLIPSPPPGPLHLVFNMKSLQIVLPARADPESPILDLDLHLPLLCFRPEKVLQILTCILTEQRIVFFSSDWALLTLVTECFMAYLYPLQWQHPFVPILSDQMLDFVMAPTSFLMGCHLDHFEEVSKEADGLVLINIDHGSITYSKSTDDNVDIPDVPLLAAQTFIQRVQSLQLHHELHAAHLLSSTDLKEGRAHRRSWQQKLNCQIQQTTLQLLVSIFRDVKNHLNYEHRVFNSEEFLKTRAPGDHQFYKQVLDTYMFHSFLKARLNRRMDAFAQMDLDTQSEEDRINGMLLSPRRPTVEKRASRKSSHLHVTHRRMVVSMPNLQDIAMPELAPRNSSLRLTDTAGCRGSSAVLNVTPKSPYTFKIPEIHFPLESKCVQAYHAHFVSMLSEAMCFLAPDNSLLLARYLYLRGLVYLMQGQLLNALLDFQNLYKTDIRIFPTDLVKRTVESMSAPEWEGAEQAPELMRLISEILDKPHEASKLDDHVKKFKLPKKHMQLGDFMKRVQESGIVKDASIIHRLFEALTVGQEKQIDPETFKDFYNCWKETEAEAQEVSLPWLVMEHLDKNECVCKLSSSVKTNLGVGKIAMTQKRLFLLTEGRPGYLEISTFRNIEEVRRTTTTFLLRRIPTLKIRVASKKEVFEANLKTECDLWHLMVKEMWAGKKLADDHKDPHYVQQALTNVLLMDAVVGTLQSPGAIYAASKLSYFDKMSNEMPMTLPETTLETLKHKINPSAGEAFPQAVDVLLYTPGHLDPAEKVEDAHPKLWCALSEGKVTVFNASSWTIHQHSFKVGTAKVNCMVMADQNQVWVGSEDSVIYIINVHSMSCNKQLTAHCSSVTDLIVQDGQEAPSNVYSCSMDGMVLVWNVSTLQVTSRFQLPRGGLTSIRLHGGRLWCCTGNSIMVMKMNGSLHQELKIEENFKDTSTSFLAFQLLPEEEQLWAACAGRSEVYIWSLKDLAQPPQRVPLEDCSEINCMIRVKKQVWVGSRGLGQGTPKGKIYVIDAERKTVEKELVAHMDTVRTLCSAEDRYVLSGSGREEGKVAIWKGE

The list shows a part of the results.

Compound in this assay: COc1ccc(Cn2ccc3ccc(C(=O)NO)cc32)cc1
In words: dose-dependent thermal stabilisation call (2D-TPP, DLPTP, 10% FDR) (binary (1 = stabilised)); higher = stabilised by the compound. As to conditions: system: HL-60 intact cells; concentration range 0.04-10 µM.
Regarding CORO1A (UniProt P31146), the “dose-dependent thermal stabilisation call” value was inactive: 0.

On to CPS1 (UniProt P31327), for which the “dose-dependent thermal stabilisation call” value was inactive: 0.

Consider COX7C (UniProt P15954), for which the “dose-dependent thermal stabilisation call” value was inactive: 0.

For CRIPT (UniProt Q9P021), the “dose-dependent thermal stabilisation call” value is inactive: 0.

Take CRTAP (UniProt O75718): the “dose-dependent thermal stabilisation call” value was inactive: 0.

As to DHPS (UniProt P49366), the “dose-dependent thermal stabilisation call” value was inactive: 0.

Regarding CORO1C (UniProt Q9ULV4), the “dose-dependent thermal stabilisation call” value is inactive: 0.

Turning to CSTA (UniProt P01040), the “dose-dependent thermal stabilisation call” value was inactive: 0.

On to DHX37 (UniProt Q8IY37), for which the “dose-dependent thermal stabilisation call” value was inactive: 0.

DDX46 (UniProt Q7L014): the “dose-dependent thermal stabilisation call” value was inactive: 0.

Consider COX5B (UniProt P10606), for which the “dose-dependent thermal stabilisation call” value was inactive: 0.

Take COX4NB (UniProt O43402): the “dose-dependent thermal stabilisation call” value is inactive: 0.

Regarding COPS5 (UniProt Q92905), the “dose-dependent thermal stabilisation call” value is inactive: 0.

Turning to CUTA (UniProt O60888), the “dose-dependent thermal stabilisation call” value was inactive: 0.

In the case of DDX23 (UniProt Q9BUQ8), the “dose-dependent thermal stabilisation call” value is inactive: 0.

DHX15 (UniProt O43143): the “dose-dependent thermal stabilisation call” value is inactive: 0.

For the target CPNE2 (UniProt Q96FN4), the “dose-dependent thermal stabilisation call” value is inactive: 0.

Take CSDA (UniProt P16989): the “dose-dependent thermal stabilisation call” value is inactive: 0.

With CYTB (UniProt P00156), the “dose-dependent thermal stabilisation call” value was inactive: 0.

For DHX38 (UniProt Q92620), the “dose-dependent thermal stabilisation call” value is inactive: 0.

Consider DAZAP1 (UniProt Q96EP5), for which the “dose-dependent thermal stabilisation call” value was inactive: 0.

For the target DDX42 (UniProt Q86XP3), the “dose-dependent thermal stabilisation call” value is inactive: 0.

For the target DECR2 (UniProt Q9NUI1), the “dose-dependent thermal stabilisation call” value was inactive: 0.

With COPE (UniProt O14579), the “dose-dependent thermal stabilisation call” value was inactive: 0.

With COMT (UniProt P21964), the “dose-dependent thermal stabilisation call” value is active: 1.

As for DCXR (UniProt Q7Z4W1), the “dose-dependent thermal stabilisation call” value is inactive: 0.

DENND3 (UniProt A2RUS2): the “dose-dependent thermal stabilisation call” value was inactive: 0.
